Results reported in article PMC12858993.
These are yes or no findings as the source states them, for the method shown. Binding seen in cells or lysates may run through a third protein. Some binding calls cover weakened binding; strength is not graded here. Tags and fused reporters may be left off the sequences shown.

Biological target: T1, Flag-Fbxo2 (UniProt Q9UK22)
T1 sequence: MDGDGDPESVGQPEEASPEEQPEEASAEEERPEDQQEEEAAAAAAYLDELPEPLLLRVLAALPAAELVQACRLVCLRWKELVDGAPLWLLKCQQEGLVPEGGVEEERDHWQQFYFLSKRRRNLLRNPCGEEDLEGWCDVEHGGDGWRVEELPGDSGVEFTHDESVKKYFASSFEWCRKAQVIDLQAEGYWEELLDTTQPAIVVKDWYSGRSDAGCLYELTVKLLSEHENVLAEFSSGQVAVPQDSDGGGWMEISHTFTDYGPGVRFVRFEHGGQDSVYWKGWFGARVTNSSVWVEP
Experiment: co-IP; HEK293T cells transfected with the indicated plasmids (YTHDF2 deletion mutants), 10 uM MG132 for 12 h; IP and Western blot

B1: YTHDF2 N-terminal domain (amino acids 1-384) (domain or fragment, UniProt Q9Y5A9 1-384)
chain: MSASSLLEQRPKGQGNKVQNGSVHQKDGLNDDDFEPYLSPQARPNNAYTAMSDSYLPSYYSPSIGFSYSLGEAAWSTGGDTAMPYLTSYGQLSNGEPHFLPDAMFGQPGALGSTPFLGQHGFNFFPSGIDFSAWGNNSSQGQSTQSSGYSSNYAYAPSSLGGAMIDGQSAFANETLNKAPGMNTIDQGMAALKLGSTEVASNVPKVVGSAVGSGSITSNIVASNSLPPATIAPPKPASWADIASKPAKQQPKLKTKNGIAGSSLPPPPIKHNMDIGTWDNKGPVAKAPSQALVQNIGQPTQGSPQPVGQQANNSPPVAQASVGQQTQPLPPPPPQPAQLSVQQQAAQPTRWVAPRNRGSGFGHNGVDGNGVGQSQAGSGSTPSE
binding: binds
